Among the data in PubChem BioAssay AID1508600 (Functional Genomics Laboratory (NCATS/FGL), 2020) are z-score values, retold here.

Screen size: about 53,000 sequences; about 3,700 (7%) were called active.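 How the source made its calls: active means gene knockdowns whose robust z-score for IL-1 alpha signal is at least 2 or at most -2, so actives lie on both sides; inactive means the rest.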 This is one part of the list.

A short description of this assay: Components of the Cytosolic LPS Sensing Pathway: Gene Identification via Genome-wide siRNA Screen.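 Further: robust z of the log signal after scaling to non-targeting control siRNA wells of the plate.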 The note with it: RAW264.7 macrophages, IL-1a HTRF, actives lie on both sides, screened at 100 nM (by protocol), cells primed 5 h with Pam3CSK4 first. The method, boiled down:
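Three distinct siRNAs per gene were tested singly at 100 nM in RAW264.7 macrophages. Following Pam3CSK4 priming and 24 hour LipidA transfection, IL-1a secretion was read by HTRF.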
On to GGCUUUAGUUGUCUUUUAUTT against Cxcr1, for which the z-score was inactive: 0.609. Next, GGUAGUAGGAGGAAUGACGTT against Ccdc93: inactive: -0.353; CGGAUACCUAGAGUGCAUCTT against Zfp42: inactive: 0.725; GGUACUUUACGAACAUCUGTT against Sall1: inactive: 1.24.

As for GCAUUAGCUUGUUAACAUUTT against Tmtc2, the z-score is inactive: -1.09. Next, GGUUUCAGGUUGAAGACCATT against Pold2: inactive: -1.1. In the case of CCCUAAGGAGUUUUGCGUUTT against Ikzf4 it was inactive: 1.58; in that of GGCUGUCAUCUACGUUCUUTT against Dhrs11, inactive: 0.495; in that of GGAGCAAGUGAUGAUGACCTT against Pkp1, inactive: -0.263. GGCGUAUGUUUGUUGGUUGTT against Sertad3: the z-score was inactive: 0.913. In the case of GGAUUCAGGCAGAAGAAAGTT against Cep57 it was inactive: 0.454.

As for GGUUCAGAACGGAAGUGGCTT against Tnfrsf18, the z-score was inactive: -0.127.

Turning to GGGCUAUCUAACAUUAACUTT against Eef1akmt2, the z-score is inactive: -0.826. In the case of CGAAAGGAAACAGUCCAGATT against Yju2 it was inactive: -1.81. Regarding CCUGUGUUAGGAGUUAUUCTT against Bpnt2, the z-score was inactive: 1.56. In the case of GGUUUGAUGAGAAGAAACATT against Mmp3 it was inactive: -0.429; in that of GCUUUAUGGAUCUACCAAATT against Fbxl3, inactive: 1.81. Next, GGUCUUUGAGGAAAGAGGUTT against Hemk1: inactive: -1.59; GGACGAUAAGCUCUCUCAGTT against Epb41l3: inactive: 1.62. Next, GGAAAAGAAAAGGGCGGGCTT against Tgfbr2: inactive: 0.49; GGAAAAAUUGUGCUCAACUTT against Kmt5b: inactive: -0.613; CCUGCCAAUUUGUUUUUUGTT against Ccser2: inactive: -0.54. GCCCAUAAUAAGGAUCCUATT against Tmem184c: the z-score was inactive: -0.27. Next, GGAGAACAGUCUUGAGAAATT against Crisp3: inactive: -0.712; GGAGAAACAGUUGUCAACUTT against Rprd2: inactive: -0.595; GACAAGGCUUCAUAAAAAGTT against Qrich1: inactive: -0.312. Next, GUUUCCGGUCAGAGUGUGATT against Stard10: inactive: 1.64; GGCAAGUGGCUCUUUGGUGTT against Cysltr1: inactive: -0.994; “CGAUUUCUGCUCCUCAUUUTT against 9130019O22Rik”: inactive: -1.5. For GGUCAUGCAGGUUUUGAAUTT against Snd1, the z-score is inactive: 1.9. Next, CCCAAAAGUUUUUACAGCUTT against Ttpa: inactive: 0.0745; GCAGCUAAUACAAACCUUATT against Scaf8: inactive: 0.189; GGCUCACAAAGAGGAAAACTT against Pcid2: inactive: -1.16. Next, GAAGAGGGCACCUAGUUUCTT against Cox7b: inactive: 0.249; “GGAAGUGACAUCACAGACGTT against 1810009N02Rik”: inactive: -0.265; CCAUGAGCACCUACUAUGCTT against Tmem86b: inactive: -1.3. Next, GCAAGCUAUCAGGUGCAGUTT against Rnpepl1: inactive: 0.809; GGUUGAGUAGUUGAUUUUCTT against Hemgn: inactive: 0.663; GCCUGAGUCAUCCUCCAAATT against Zfp446: inactive: -0.138. In the case of GGACAAAGAAAAUACGAAATT against Olfr593, the z-score is inactive: -0.295.

As to CCCUGCUAAAAUCGACCUGTT against Plekha8, the z-score was inactive: -0.912. Next, GGUUGUUCAUGAGCCGAACTT against Rpl18: inactive: -0.0641; GCAUCGCAUAUUGGAAUGCTT against Lim2: inactive: 0.366. In the case of GGGCCAUACCAUUUGGGUGTT against Wdr38 it was inactive: 0.142; in that of GGAAUGUGCGGAAGACAUATT against Gfer, inactive: 0.468. In the case of GGGACAGUUUUCGGACUUCTT against S1pr4 it was inactive: -0.362; in that of GGACCAUCCCUGCUUAAUGTT against Brat1, active: -2.09. For the sequence GGGUUUAAUCAUGAUAGAATT against Tet2, the z-score was inactive: -0.583. On to GGAAGACGAUGACCUAAACTT against C1s2, for which the z-score is inactive: 0.00465.

With GGUUCAGAAAUUUGUCAACTT against Nhp2, the z-score was inactive: 0.252.

Regarding GCAACUGUGAACCAGUUGUTT against Pcif1, the z-score was inactive: 0.528.

With GGAGGAGCAUCCUUCAACUTT against Fcrl1, the z-score is inactive: -1.33. In the case of GGAUGAAGCCUUCAUCAGGTT against Adcy6 it was inactive: 0.0162.

For the sequence GCAUAUGGCUUAACACAAATT against Tbc1d15, the z-score was inactive: 0.196. Next, CCAAAUUAUCACCCUGUUCTT against Olfr763: inactive: -0.0232; “CCUCUGACACCUUAGCGAATT against Ppp1r2-ps9”: inactive: 1.43. As for GGAGGUAGGAAGGAAGAAGTT against Rrp8, the z-score was inactive: 0.396.

Regarding GGAAACCUUUCGUAUUUCATT against Cbll1, the z-score was inactive: -0.0247.

As to GGAUAUUCGUUACCAUUAUTT against Msantd2, the z-score is inactive: -1.55.

For GGACCUAAGCAGAAAACUGTT against Meis3, the z-score was inactive: 0.789. In the case of CGAUAAGAAUCUCUUCCGCTT against Camkv it was inactive: 0.109. Consider CCGUCUCUAUCUACCUAGGTT against Npas3, for which the z-score is inactive: 0.0727. In the case of CGGCCGUCAGCUUCUUUUATT against Olfr283, the z-score is inactive: -0.204. Next, CCAUAAGUGAGCUUGAUGUTT against Sipa1l1: inactive: -0.704; CCGUAUUGUCCAUUGCCUCTT against Olfr577: inactive: -0.0317; GGUCAAGGUAGGCAAUGAATT against Stau2: active: -2.32. Next, GGAAUCUGCUUGAAUAUGGTT against Tmem126a: inactive: -1.01; GGCAAGUGACAUUGUUCCUTT against Sohlh1: inactive: -1.3.
